The results in this text go back to US5789447A, “Nitric oxide releasing compounds as protective agents in ischemia reperfusion injury” (priority 1995, dated 1998).

The nature of the data set: Chemical controls: DEA/NO or NO with hydrogen peroxide. The class given is physicochemical. As for the experimental part:
Anaerobic solutions of 1 mM hydrogen peroxide in 10 mM phosphate buffer, pH 7.4, were mixed with 1 mM NO. […] The rate of decomposition of DEA/NO was unaffected by the presence of 1 mM hydrogen peroxide; likewise, hydrogen peroxide was not consumed by DEA/NO or intermediates of the DEA/NO decomposition reaction as measured by the production of I3^- (Hochanadel, J. Phys. Chem., 56, 587-594 (1952)).

For the substance nitric oxide [NO], the formation of nitrate/nitrite entry (1 mM NO with 1 mM hydrogen peroxide, anaerobic, pH 7.4, <1000 s, 210 nm stopped-flow) is “No rapid formation of nitrate/nitrite”. Besides, the “consumption of NO by hydrogen peroxide” value (aerobic, 100 mM phosphate pH 7.4, 1 mM hydrogen peroxide, sulfinamide nitrosation) was “not significant”.
